Literature values, collected in PMC9683570.
Structures can show the parent of a compound that is named as a salt.

Tested on: hCaV1.2, β2, α2δ
Conditions: read-out: IC50 (phasic block); phasic or inactivated channel block, ambient temperature, 0.1 Hz

**Q.** Which IC50 does the source give for `CCC(=O)C(CC(C)N(C)C)(c1ccccc1)c1ccccc1` (racemic) [Methadone, (±)-methadone hydrochloride] here?
**A.** 7.7 µM
